# Results: paper PMC11758220, “Identification of a Privileged Scaffold for Inhibition of Sterol Transport Proteins through the Synthesis and Ring Distortion of Diverse, Pseudo-Natural Products” (ACS Central Science, 2025)
# Tested on: panel of STPs
# Test: Screen against a broad panel of the STPs using FP and DSF assays
# Format: binding, human
# Conditions: single dose data sheet
row,SMILES,Note: interference with FP assays
1,Cc1ccc2c(c1)C(=O)[C@]1(CC[C@@H]3C[C@H](O)CC[C@@]31C)N2 [Compound 13],Interfered with all FP assays
2,COc1ccc2c(c1)[C@@]13CC[C@@H]4C[C@@H](CC[C@@]41C)OC3=N2 [Compound 15f],Interfered with ORP2 FP assay
3,C[C@]12CC[C@@H]3C[C@H]1CC[C@@]21C(=Nc2ccc(-c4ccccc4)cc21)O3 [Compound 21a],"Interfered with ORP1, ORP2, and STARD1 FP assays"
